Measurements published in article PMC7819943, “Rice protein-binding microarrays: a tool to detect cis-acting elements near promoter regions in rice”.
The other results are listed elsewhere or left out.

Chains of the proteins cited; added tags and fusions are not shown.
UniProt Q0JBA9, entry or part of it: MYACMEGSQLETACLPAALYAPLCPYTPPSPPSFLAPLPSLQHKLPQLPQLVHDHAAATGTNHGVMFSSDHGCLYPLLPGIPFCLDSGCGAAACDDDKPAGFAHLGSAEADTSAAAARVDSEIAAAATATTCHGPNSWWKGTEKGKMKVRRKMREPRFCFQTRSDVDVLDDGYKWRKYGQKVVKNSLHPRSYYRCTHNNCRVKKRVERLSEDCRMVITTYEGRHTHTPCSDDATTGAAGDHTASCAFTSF

Each sequence was assayed against OsWRKY34 (Oryza sativa, UniProt Q0JBA9 1-250) (assay: protein-binding microarray (RPBM); PBS, 2% BSA, 51.3 ng/ul salmon testes DNA, 50 uM zinc acetate, 200 nM TF, 25 C, 1 h; high values mean tight binding). Conditions: protein: recombinant; tags: N-terminal polyhistidine and DsRed monomer fusion (pET32a); label: CyDye5-dUTP incorporated in the synthesized complementary strand; 3' TTTTT single-stranded linker to array surface; dsDNA, one strand shown.
Method in brief: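 Ni–NTA purification followed expression in E. coli BL21-CodonPlus of transcription factors fused N-terminally to a polyhistidine tag and DsRed. At 200 nM in PBS with 2% BSA, salmon testes DNA and 50 µM zinc acetate, the protein was incubated for 1 h at 25 °C with a custom Agilent array that had been primer-extended with Cy5-dUTP and blocked with 2% BSA. After washing, the array was read on an Axon 4000B scanner. The binding signal is per-feature fluorescence intensity in arbitrary units.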

Row | Sequence | binding signal
1 | ATCGTCCTCCTTTCCGTAGCTGGCAACATCTCCGCCTCTCCGGAGTCACCTAGTGCAG | 8230 fluorescence intensity (a.u.)
2 | AAACACAAACGTTCACACAACATGCGCACACTATACCTGTCGGAGTCACCTAGTGCAG | 8120 fluorescence intensity (a.u.)
3 | ATCTAGCTTCATCTTATGACATCAACAACTTTTCTGATTGCGGAGTCACCTAGTGCAG | 10000 fluorescence intensity (a.u.)
4 | TACTCTGGCCACTTCCTTCCTTCTCCGCTGGATCGGATTCCGGAGTCACCTAGTGCAG | 8040 fluorescence intensity (a.u.)
5 | AGCGGCTCACCGAGCTGACCCATCTCAACATCTCCCCACCCGGAGTCACCTAGTGCAG | 8020 fluorescence intensity (a.u.)
6 | GAGAGTATTCTTTTTCGCCGTAGATATTACTACCGTTTCACGGAGTCACCTAGTGCAG | 9650 fluorescence intensity (a.u.)
7 | ATGTGGATGTAAAGCTGGTCGGTACAGTTCAGTTCAGACTCGGAGTCACCTAGTGCAG | 8440 fluorescence intensity (a.u.)
8 | TGGCACTCTACCACCAAAATTTGTTGTAAACATGGTATCTCGGAGTCACCTAGTGCAG | 9900 fluorescence intensity (a.u.)
9 | ACCAGTAATATCTGGTCTCACTTGTCATACACACTTTTGCCGGAGTCACCTAGTGCAG | 8450 fluorescence intensity (a.u.)
10 | AACTTTGGTCAACGGTGGGGATTGGGACTAGACTCAGGGACGGAGTCACCTAGTGCAG | 11300 fluorescence intensity (a.u.)
11 | GACCCCGCGGATCCGGTCGCTGTCAGCCTCCTCCGCAATCCGGAGTCACCTAGTGCAG | 9900 fluorescence intensity (a.u.)
12 | TCATGTGGGGCTTTCATGCTTTAATAACGTGTGATATTGACGGAGTCACCTAGTGCAG | 8360 fluorescence intensity (a.u.)
13 | GGGTACAGGGGTGGGGACTTGGGTGTGTTGTGGTGGTTACCGGAGTCACCTAGTGCAG | 12400 fluorescence intensity (a.u.)
14 | CCAGCGTATCTTCTACTACTACTACGTATCTGCTGCATTCCGGAGTCACCTAGTGCAG | 9040 fluorescence intensity (a.u.)
15 | TCGTAATGACTCTGCTTGCTAGTTCACAGTTATCACTTGACGGAGTCACCTAGTGCAG | 8390 fluorescence intensity (a.u.)
16 | TCTCACAATCTCTTTGTTTTCTTGTAATTCCAACCACTTTCGGAGTCACCTAGTGCAG | 13300 fluorescence intensity (a.u.)
17 | ACCCGTTCTTTCTCACGCTTGTGGCGTGCATTGTCAATCACGGAGTCACCTAGTGCAG | 8380 fluorescence intensity (a.u.)
18 | CATCAACAGCCTCCAGTCTCTGCGCTCCTACTCTGCCGGACGGAGTCACCTAGTGCAG | 8950 fluorescence intensity (a.u.)
19 | CCACACGCCCACCCCGCGCCGCCGCCTCGCCGTCGCTGTCCGGAGTCACCTAGTGCAG | 10200 fluorescence intensity (a.u.)
20 | CCATATATAAACCGCGCCAACCTTGCCGTCGTCCTCGACGCGGAGTCACCTAGTGCAG | 8330 fluorescence intensity (a.u.)
21 | CAACAGCTGCAGCTGCTACGATTGTTCTCTATATTTCATTCGGAGTCACCTAGTGCAG | 8160 fluorescence intensity (a.u.)

An excerpt of these results, in markdown.

| Row | Sequence | binding signal |
| --- | --- | --- |
| 6 | GAGAGTATTCTTTTTCGCCGTAGATATTACTACCGTTTCACGGAGTCACCTAGTGCAG | 9650 fluorescence intensity (a.u.) |
| 19 | CCACACGCCCACCCCGCGCCGCCGCCTCGCCGTCGCTGTCCGGAGTCACCTAGTGCAG | 10200 fluorescence intensity (a.u.) |

(list continues)

Row | Sequence | binding signal
22 | AATACTCTCCCAAGTTATTTTGTTCTTGTTCTCTGCATTCCGGAGTCACCTAGTGCAG | 12200 fluorescence intensity (a.u.)
23 | GGAAACCCTCGCGTCTTCTGTTCCGCCTCAGCGTCTCATCCGGAGTCACCTAGTGCAG | 9560 fluorescence intensity (a.u.)
24 | GATCCATCGCCTGTGTCCCCTCCGCCACTCCATCGCGCGCCGGAGTCACCTAGTGCAG | 11200 fluorescence intensity (a.u.)
25 | CACTAGCGGGCGCGGGGCGGGGTTAGCAGTGCACGTCACGCGGAGTCACCTAGTGCAG | 9460 fluorescence intensity (a.u.)
26 | GGTCAGGTGGGTTACTCGTCGCCTTCAGCCCCTGGCATGTCGGAGTCACCTAGTGCAG | 8170 fluorescence intensity (a.u.)
27 | ACCCTTGCAACGCACTTCTCACTCGTAGCTTTAGTTTTCCCGGAGTCACCTAGTGCAG | 9980 fluorescence intensity (a.u.)
28 | TCCTTGCTCGTCGTTTTCTCCTAACTAATCTAATCTCCCTCGGAGTCACCTAGTGCAG | 8400 fluorescence intensity (a.u.)
29 | CGTCGTTTCGTTTAGCATATGTTGTCACGGTACATGTATGCGGAGTCACCTAGTGCAG | 10500 fluorescence intensity (a.u.)
30 | GTAATTCTGTGTTGGTTCTTACATTCTGTCTTCTTTGAAACGGAGTCACCTAGTGCAG | 12300 fluorescence intensity (a.u.)
31 | TTACAGTCGGACTGTGCAATTGTTTTTTTTCTCGTCCACACGGAGTCACCTAGTGCAG | 10700 fluorescence intensity (a.u.)
32 | CTACACACATAAACTTCTATTTTTTTCATCACATTGTTCTCGGAGTCACCTAGTGCAG | 9210 fluorescence intensity (a.u.)
33 | ATCTTATTAATTAATTCTTTGTGTTTCATATTATTCTAATCGGAGTCACCTAGTGCAG | 10300 fluorescence intensity (a.u.)
34 | GCCACTAATTATCTCATCATGTCACCAAGTTAAGTAGGTTCGGAGTCACCTAGTGCAG | 8330 fluorescence intensity (a.u.)
35 | CAATGGTGTCATATATTATCGGCGGTACTATGTTCTATTTCGGAGTCACCTAGTGCAG | 11000 fluorescence intensity (a.u.)
36 | ATCGTTTCGCTTAGCTTTTCTTTCTTCTTCGTCGTCTCGGCGGAGTCACCTAGTGCAG | 10700 fluorescence intensity (a.u.)
37 | ATTGCAGCTCCTGGATTCTACGCCCAGTGCAGACCAACACCGGAGTCACCTAGTGCAG | 8240 fluorescence intensity (a.u.)
38 | TTGAGCGCAATTTTTTTTTTTTTGTGTGTGTGTTGTTGGTCGGAGTCACCTAGTGCAG | 8270 fluorescence intensity (a.u.)
39 | GCCTCGCCTTCTTATTCTGGCTCATCTGCAAGCTGCAGCTCGGAGTCACCTAGTGCAG | 12400 fluorescence intensity (a.u.)
40 | ACTCGCACTTTATATTTCTCCAAATTCCACATTCAAATTTCGGAGTCACCTAGTGCAG | 8480 fluorescence intensity (a.u.)
41 | ATTTAATTTGTCAGCCACACCATCAGTTCTAAATTATTTTCGGAGTCACCTAGTGCAG | 8060 fluorescence intensity (a.u.)
42 | GCGCCTTTCTATGCCTCTCTATCACCTTTTGGTCATTCGGCGGAGTCACCTAGTGCAG | 8590 fluorescence intensity (a.u.)
